The source of these data is PubChem BioAssay AID248 (DTP/NCI, 2004).

The list does not hold the whole screen: it gathers tests that were run many times, whatever their T/C, doses with no T/C, and many T/C values between a quarter and a half above the control. Other doses and runs of a compound stand elsewhere. T/C gives the treated animals as a percentage of the vehicle group. Some doses have a count of surviving animals in place of a T/C: the source files T/C as zero there, which appears to mark a toxic dose or a test without result, not a measured value. Some survivor counts are full or nearly so, which does not show that the dose was tolerated: the source hardly ever lists a survival T/C far under the control, and the zero likely stands for such cases as well. Counts of survivors are from the toxicity check (mostly the fifth day) where no day follows; animals may have died later. Schedule codes are those of the source, taken here to give the interval after Q, in days (D) or hours (H), and the number of doses after X. Some schedule codes hold Z or #, which are not explained here. Signs of the kind (2×) stand for listed records that agree. Some entries were tested several times; their values stand side by side, smallest first. Where survival is the endpoint, this PubChem deposit counts one and a half times the control or more as active, and values a quarter to a half above the control carry no call in these data; other NCI protocols may use other cut-offs. Some T/C values carry the count of animals alive at the toxicity check (mostly the fifth day); where none is given, no animal had died by that day.

The assay relates to L1210 leukemia ip in BDF1 mice, survival T/C. In words: NCI In Vivo Anticancer Drug Screen. Data for tumor model L1210 Leukemia (intraperitoneal) in B6D2F1 (BDF1) mice. The settings on record: T/C endpoint: mean survival time, higher T/C = longer survival.
Where [1] appears, read: dose: 100.0 mg/kg/injection, schedule: Q01DX009 (ip), vehicle: Klucel (hydroxypropylcellulose) (HPC).
The mark [2] stands for this setting: dose: 400.0 mg/kg/injection, schedule: Q01DX009 (ip), vehicle: Klucel (hydroxypropylcellulose) (HPC).
[3] abbreviates: dose: 400.0 mg/kg/injection, schedule: Q04DX003 (ip), vehicle: saline.
The mark [4] stands for this setting: dose: 200.0 mg/kg/injection, schedule: Q01DX001 (ip), vehicle: saline.
Setting [5] is: dose: 400.0 mg/kg/injection, schedule: Q01DX001 (ip), vehicle: saline.
The mark [6] stands for this setting: dose: 150.0 mg/kg/injection, schedule: Q01DX001 (ip), vehicle: saline.
Where [7] appears, read: dose: 300.0 mg/kg/injection, schedule: Q01DX001 (ip), vehicle: saline.
The mark [8] stands for this setting: dose: 200.0 mg/kg/injection, schedule: Q01DX009 (ip), vehicle: saline.

Turning to `Clc1nc2nc(C(Cl)(Cl)Cl)[nH]c2nc1Cl`, the survivor count was 5 of 6 under setting [1]; 2 of 6 (dose: 200.0 mg/kg/injection, schedule: Q01DX009 (ip), vehicle: Klucel (hydroxypropylcellulose) (HPC)); 0 of 6 (dose: 400.0 mg/kg/injection, schedule: Q04DX003 (ip), vehicle: Klucel (hydroxypropylcellulose) (HPC)).

For `O=C(CC(O)(C(F)(F)F)C(F)(F)F)c1ccc(Cl)c([N+](=O)[O-])c1`, for the setting “dose: 300.0 mg/kg/injection, schedule: Q01DX009 (ip), vehicle: Klucel (hydroxypropylcellulose) (HPC)”, the survivor count is on record as 3 of 6.

Take `N#CSC1CSC(SC2=NC(SC#N)CS2)=N1` (stereo not drawn): the survivor count by setting is: under setting [2], 0 of 6; under setting [3], 0 of 6.

In the case of `CC1CCOS(=O)O1` (stereo not drawn), the survivor count reads like this: (dose: 160.0 mg/kg/injection, schedule: Q01DX010 (ip), vehicle: saline) 2 of 6 and 3 of 6; (dose: 162.0 mg/kg/injection, schedule: Q01DX Z (ip), vehicle: carboxymethylcellulose (CMC)) 6 of 6; under setting [4], 1 of 4; (dose: 324.0 mg/kg/injection, schedule: Q01DX Z (ip), vehicle: carboxymethylcellulose (CMC)) 1 of 6; under setting [5], 0 of 4 (2×).

Take `CCCCN(C)N=Nc1ccccc1C(=O)O`: the survivor count by setting is: (dose: 6.25 mg/kg/injection, schedule: Q01DX009 (ip), vehicle: Klucel (hydroxypropylcellulose) (HPC)) 5 of 6; (dose: 12.5 mg/kg/injection, schedule: Q01DX009 (ip), vehicle: Klucel (hydroxypropylcellulose) (HPC)) 6 of 6; (dose: 25.0 mg/kg/injection, schedule: Q01DX009 (ip), vehicle: Klucel (hydroxypropylcellulose) (HPC)) 6 of 6; (dose: 50.0 mg/kg/injection, schedule: Q01DX009 (ip), vehicle: Klucel (hydroxypropylcellulose) (HPC)) 6 of 6.

`O=S(=O)(CC12CC1(O)C1CCC2C1)c1ccccc1` (stereo not drawn): the survivor count under setting [3] is on record as 0 of 6.

As for `CCCCCCN(C)Cc1ccc(OCCOc2ccc(CN(C)CCCCCC)cc2)cc1`, the survivor count is listed as 0 of 4 (dose: 100.0 mg/kg/injection, schedule: Q01DX001 (ip), vehicle: saline); 0 of 4 under setting [4]; 0 of 4 under setting [5].

`O=[N+]([O-])c1ccc2[nH]c(=S)sc2c1`: under setting [1], the survivor count was 2 of 6.

`Nc1nc(=S)c2ncn(C3OC(COC(=O)c4ccccc4)C(OC(=O)c4ccccc4)C3OC(=O)c3ccccc3)c2[nH]1` (stereo not drawn): the T/C by setting is: (dose: 1.25 mg/kg/injection, schedule: Q01DX009 (ip), vehicle: saline) 136 % of control; (dose: 2.5 mg/kg/injection, schedule: Q01DX009 (ip), vehicle: saline) 131 % of control; (dose: 10.0 mg/kg/injection, schedule: Q01DX009 (ip), vehicle: saline) 145 % of control [5 of 6 alive]; (dose: 20.0 mg/kg/injection, schedule: Q01DX009 (ip), vehicle: saline) 137 % of control; (dose: 44.0 mg/kg/injection, schedule: Q01DX Z (ip), vehicle: methylcellulose (MC)) 126 % of control; (dose: 67.0 mg/kg/injection, schedule: Q01DX Z (ip), vehicle: methylcellulose (MC)) 132 % of control. The T/C by setting is: (dose: 90.0 mg/kg/injection, schedule: Q01DX009 (ip), vehicle: saline) 137 % of control; (dose: 150.0 mg/kg/injection, schedule: Q01DX Z (ip), vehicle: methylcellulose (MC)) 145 % of control; (dose: 175.0 mg/kg/injection, schedule: Q01DX001 (ip), vehicle: saline) 138 % of control. In addition, where the note is “dose: 600.0 mg/kg/injection, schedule: Q01DX001 (ip), vehicle: saline”, the survivor count is given as 5 of 6.

Take `CCCCCCCCC(=O)C[N+](=O)[O-]`: the survivor count reads like this: under setting [6], 1 of 6; under setting [7], 0 of 6.

For the compound `Nc1nc(N)c2cc(N3CCCC3c3ccc(Cl)c(Cl)c3)ccc2n1` (stereo not drawn), the survivor count reads like this: (dose: 12.5 mg/kg/injection, schedule: Q01DX009 (ip), vehicle: water) 2 of 6; (dose: 25.0 mg/kg/injection, schedule: Q01DX009 (ip), vehicle: water) 1 of 6; (dose: 50.0 mg/kg/injection, schedule: Q01DX009 (ip), vehicle: water) 0 of 6; (dose: 100.0 mg/kg/injection, schedule: Q01DX009 (ip), vehicle: water) 0 of 6; (dose: 200.0 mg/kg/injection, schedule: Q01DX009 (ip), vehicle: water) 0 of 6; (dose: 400.0 mg/kg/injection, schedule: Q01DX009 (ip), vehicle: water) 0 of 6.

Turning to `C(COCC1CO1)OCC1CO1` (stereo not drawn), the T/C (dose: 50.0 mg/kg/injection, schedule: Q01DX009 (ip), vehicle: saline) is 125 and 132 % of control. Also, the survivor count runs as follows: under setting [8], 1 of 6; under setting [3], 0 of 6; (dose: 675.0 mg/kg/injection, schedule: Q01DX Z (ip), vehicle: saline) 4 of 6.

Turning to `COc1ncnc2c1c(C#N)cn2C1OC(CO)C(O)C1O` (stereo not drawn), the T/C reads like this: (dose: 6.25 mg/kg/injection, schedule: Q01DX009 (ip), vehicle: saline) 134 % of control; (dose: 12.5 mg/kg/injection, schedule: Q01DX009 (ip), vehicle: saline) 129 and 137 % of control [4 of 6 alive]; (dose: 25.0 mg/kg/injection, schedule: Q01DX009 (ip), vehicle: saline) 133 and 143 % of control; (dose: 100.0 mg/kg/injection, schedule: Q01DX005 (ip), vehicle: saline) 125 % of control. Under setting [8], the survivor count was 1 of 6.

In the case of `CC1=Cc2ccc(C)cc2C(=O)C1=O`, the survivor count is, setting by setting: (dose: 12.5 mg/kg/injection, schedule: Q04DX003 (ip), vehicle: saline with Tween-80) 3 of 6; (dose: 25.0 mg/kg/injection, schedule: Q04DX003 (ip), vehicle: saline with Tween-80) 0 of 6.

In the case of `CCC(/C=N\NC(=O)CCCC(=O)N/N=C/C(CC)CC)CC`, the survivor count (dose: 200.0 mg/kg/injection, schedule: Q01DX001 (ip), vehicle: carboxymethylcellulose (CMC)) was 4 of 4.

Turning to `Clc1cc2nsnc2c2ccccc12`, the survivor count is, setting by setting: (dose: 100.0 mg/kg/injection, schedule: Q04DX002 (ip), vehicle: gum acacia) 3 of 3; (dose: 400.0 mg/kg/injection, schedule: Q04DX002 (ip), vehicle: gum acacia) 3 of 3.

On to `O=C(C[N+]12CN3CN(CN(C3)C1)C2)c1ccc(Br)cc1`, for which the survivor count under setting [2] is reported as 0 of 3.

For `O=C(OC12CCN(CC1)CC2)c1ccccc1`, the survivor count was 0 of 6 (dose: 38.0 mg/kg/injection, schedule: Q01DX001 (ip), vehicle: saline); 0 of 6 (dose: 75.0 mg/kg/injection, schedule: Q01DX001 (ip), vehicle: saline); 0 of 6 under setting [6]; 0 of 6 under setting [7].

Turning to `Nc1c(Cl)ncn2[nH]c(=O)nc12`, the survivor count (dose: 400.0 mg/kg/injection, schedule: Q01DX001 (ip), vehicle: carboxymethylcellulose (CMC)) is reported as 2 of 4.
